# Measurements published in publication PMC12155308, “Inhibiting Infectious Bronchitis Virus PLpro Using Ubiquitin Variants” (International Journal of Molecular Sciences, 2025).
# T1: His6-IBV PLpro, Beaudette strain (papain-like protease domain of nsp3) (avian infectious bronchitis virus, …, UniProt P0C6Y1 1348-1659)
# T1 sequence: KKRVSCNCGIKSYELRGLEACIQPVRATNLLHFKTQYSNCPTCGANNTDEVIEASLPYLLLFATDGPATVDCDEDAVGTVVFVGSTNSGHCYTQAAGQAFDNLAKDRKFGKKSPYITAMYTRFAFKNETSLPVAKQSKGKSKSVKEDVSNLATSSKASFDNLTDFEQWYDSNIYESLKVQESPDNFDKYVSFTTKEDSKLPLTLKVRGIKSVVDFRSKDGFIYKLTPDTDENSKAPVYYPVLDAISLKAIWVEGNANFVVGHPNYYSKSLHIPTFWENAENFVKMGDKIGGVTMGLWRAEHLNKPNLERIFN
# Experiments:
# [1] = biological target: T1, His6-IBV PLpro, Beaudette strain …; assay: cell-based or functional assay
# [2] = biological target: the molecule itself; assay: SEC; Superdex 75; 50 mM Tris-HCl pH 7.5, 50 mM NaCl, 1 mM DTT; two peaks with different retention times
Binder,"IBV Beaudette titer (plaque assay) from FLAG-UbV-transfected DF-1 cells, MOI 0.5, 24 hpi, against the GFP control [1] [fold decrease]",stoichiometry N [2]
UbV.IBV.8 (designed binder) MLIFVKTFTRNTIALEVEPSDTIENVKAKIQDKEGIPPDQQRLIFAGKQLEDGRTLSDYNIQNESWLHLLRSLLSPTH,2,–
"UbV.IBV.1, recombinant, His-tagged (designed binder, also called UbV 1; UbV 1 monomer; source: E. coli BL21 (DE3), purified (Ni-NTA, Superdex 75 SEC)) MQIFVKTISAKTITLEVEPSDTIENVKAKIQDKEGIPPDQQGLMFAGKFLEDGRTLSDYNIPKESTLHLLMRLRGRSV",–,2
